Test results: PMC10619491, “SET7/9-mediated methylation affects oncogenic functions of histone demethylase JMJD2A” (JCI Insight, 2023)
Where a chain is given by its changes, count along the chain named. Results are given in words; binding and its absence hold for the method and conditions named. In cells and extracts the contact can be indirect. Some binding calls cover weakened binding; strength is not graded here. Where a sequence is shown, tags or fusion partners need not be part of it.

Protein sequences, listed by entry. Tags and fused reporters are not part of them.
UniProt P50549: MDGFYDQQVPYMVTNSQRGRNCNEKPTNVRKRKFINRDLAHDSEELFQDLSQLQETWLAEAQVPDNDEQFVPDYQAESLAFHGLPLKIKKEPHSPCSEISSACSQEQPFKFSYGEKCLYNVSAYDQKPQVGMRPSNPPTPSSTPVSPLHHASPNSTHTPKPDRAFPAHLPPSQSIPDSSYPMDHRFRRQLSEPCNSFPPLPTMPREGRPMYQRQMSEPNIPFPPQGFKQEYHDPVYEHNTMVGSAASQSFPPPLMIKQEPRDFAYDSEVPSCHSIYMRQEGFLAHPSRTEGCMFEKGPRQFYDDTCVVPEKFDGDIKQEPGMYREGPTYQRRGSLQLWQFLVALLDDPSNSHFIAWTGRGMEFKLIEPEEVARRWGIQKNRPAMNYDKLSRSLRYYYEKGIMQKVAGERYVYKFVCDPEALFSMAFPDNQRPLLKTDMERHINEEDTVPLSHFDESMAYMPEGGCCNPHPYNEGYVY
UniProt P10275: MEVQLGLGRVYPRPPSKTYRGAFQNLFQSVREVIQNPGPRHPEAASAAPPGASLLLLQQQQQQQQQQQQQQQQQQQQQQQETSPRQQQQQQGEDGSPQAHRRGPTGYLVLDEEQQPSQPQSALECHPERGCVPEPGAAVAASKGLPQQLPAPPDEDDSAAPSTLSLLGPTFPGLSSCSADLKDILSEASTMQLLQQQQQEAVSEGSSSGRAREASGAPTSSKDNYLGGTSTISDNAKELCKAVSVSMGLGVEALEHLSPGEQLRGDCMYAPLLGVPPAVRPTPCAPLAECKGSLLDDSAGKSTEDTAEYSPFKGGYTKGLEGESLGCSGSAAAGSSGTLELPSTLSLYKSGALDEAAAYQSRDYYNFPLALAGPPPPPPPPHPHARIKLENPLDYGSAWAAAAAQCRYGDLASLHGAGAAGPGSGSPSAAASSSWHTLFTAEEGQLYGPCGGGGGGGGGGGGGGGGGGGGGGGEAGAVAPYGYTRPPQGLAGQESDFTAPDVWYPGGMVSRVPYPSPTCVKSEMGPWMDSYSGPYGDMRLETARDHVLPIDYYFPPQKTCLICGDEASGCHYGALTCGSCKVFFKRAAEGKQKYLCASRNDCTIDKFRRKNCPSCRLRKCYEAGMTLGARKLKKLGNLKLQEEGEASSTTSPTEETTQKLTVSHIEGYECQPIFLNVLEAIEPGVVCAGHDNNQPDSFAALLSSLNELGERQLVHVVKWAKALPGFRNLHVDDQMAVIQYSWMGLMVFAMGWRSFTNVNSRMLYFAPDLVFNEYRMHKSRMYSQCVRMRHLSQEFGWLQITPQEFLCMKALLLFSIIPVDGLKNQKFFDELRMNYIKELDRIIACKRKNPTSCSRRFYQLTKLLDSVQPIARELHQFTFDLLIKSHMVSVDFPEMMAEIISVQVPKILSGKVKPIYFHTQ

Legend:
[1] = molecular target: T1, Flag-JMJD2A R594 mutant (human) (UniProt O75164); test: co-IP; 293T cells co-transfected with Flag-JMJD2A (WT or K-to-R mutants) and 6Myc-ETV1; anti-Flag IP, anti-Myc Western blot; also with doxycycline (0.3 μg/mL) to overexpress SET7/9
T1 sequence: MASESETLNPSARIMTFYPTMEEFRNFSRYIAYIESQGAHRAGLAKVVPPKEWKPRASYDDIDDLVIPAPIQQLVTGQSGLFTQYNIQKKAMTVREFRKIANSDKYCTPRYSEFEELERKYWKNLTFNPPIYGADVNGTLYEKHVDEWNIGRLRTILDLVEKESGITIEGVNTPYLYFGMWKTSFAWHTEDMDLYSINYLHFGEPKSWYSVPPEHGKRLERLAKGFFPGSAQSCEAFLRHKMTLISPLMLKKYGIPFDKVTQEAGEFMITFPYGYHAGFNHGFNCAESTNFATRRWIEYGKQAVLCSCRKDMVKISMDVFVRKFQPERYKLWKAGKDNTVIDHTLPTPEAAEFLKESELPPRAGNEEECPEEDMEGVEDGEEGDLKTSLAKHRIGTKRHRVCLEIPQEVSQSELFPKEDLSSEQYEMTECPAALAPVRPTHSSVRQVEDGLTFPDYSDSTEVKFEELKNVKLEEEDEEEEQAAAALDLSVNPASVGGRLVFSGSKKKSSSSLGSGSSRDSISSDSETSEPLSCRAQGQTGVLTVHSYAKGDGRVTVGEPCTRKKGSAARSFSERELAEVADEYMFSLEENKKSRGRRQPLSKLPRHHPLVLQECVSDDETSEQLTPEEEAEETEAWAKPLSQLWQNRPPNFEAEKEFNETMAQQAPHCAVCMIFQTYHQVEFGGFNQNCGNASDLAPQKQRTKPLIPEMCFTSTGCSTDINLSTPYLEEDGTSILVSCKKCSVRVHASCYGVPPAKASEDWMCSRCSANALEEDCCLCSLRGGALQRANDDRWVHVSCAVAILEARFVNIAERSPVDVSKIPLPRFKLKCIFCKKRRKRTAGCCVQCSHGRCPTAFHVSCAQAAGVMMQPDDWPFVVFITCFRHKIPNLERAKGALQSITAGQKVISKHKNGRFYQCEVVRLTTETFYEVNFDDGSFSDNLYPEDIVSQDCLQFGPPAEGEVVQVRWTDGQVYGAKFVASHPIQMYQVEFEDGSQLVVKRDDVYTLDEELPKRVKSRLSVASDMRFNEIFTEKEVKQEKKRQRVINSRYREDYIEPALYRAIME

[2] = molecular target: T2, Flag-JMJD2A R505/506/507/563/564/594 hexa-mutant (human) (UniProt O75164); test: as above
T2 sequence: T1 sequence with K505R, K506R, K507R, K563R, K564R

[3] = molecular target: T3, Flag-JMJD2A R505/506/507 triple mutant (human) (UniProt O75164); test: as above
T3 sequence: T1 sequence with K505R, K506R, K507R, R594K

[4] = molecular target: T4, Flag-tagged JMJD2A (WT) (human) (UniProt O75164); test: as above
T4 sequence: T1 sequence with R594K

[5] = molecular target: T5, Flag-JMJD2A R563/564 mutant (human) (UniProt O75164); test: as above
T5 sequence: T1 sequence with K563R, K564R, R594K

[6] = molecular target: T2, Flag-JMJD2A R505/506/507/563/564/594 hexa-mutant (human); test: co-IP; Flag-JMJD2A (WT or 6xR) with ectopically expressed androgen receptor, in the presence of 50 nM dihydrotestosterone; anti-Flag IP
[7] = molecular target: T4, Flag-tagged JMJD2A (WT) (human); test: as above

Row | binding [1] | binding [2] | binding [3] | binding [4] | binding [5] | binding [6] | binding [7] | Substance
1 | binds | binds | binds | binds | binds |  |  | 6Myc-tagged ETV1 (from UniProt P50549 1-477)
2 |  |  |  |  |  | binds | binds | androgen receptor (AR), ectopically expressed (from UniProt P10275 1-920)
